The list shows a part of the results. Hit calls seldom repeat between salt and free forms of one compound.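 Kinases, fused to nanoluciferase, were expressed in K562 cells; luminescence was measured every 4 h from 2 to 18 h as percent of control (DMSO = 100%, positive control = 0%). A time point is decreased if signal falls significantly (2 sigma). Hits were called by the authors by a rule that is not shown; the count of time points alone does not decide it.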
Key:
Test in all cases: number of time points (of 5) at which kinase-Nluc abundance scored as decreased, DMSO-normalised (count); higher = more persistent destabilization
Settings in all cases: K562; 2-18 h
[1] = molecular target: EPHA2 (UniProt P29317)
[2] = molecular target: ERBB3 (UniProt P21860)
[3] = molecular target: ERBB4_R711C (clone: ERBB4_mut) (UniProt Q15303)
[4] = molecular target: ERN1 (UniProt O75460)
[5] = molecular target: FGFR1 (UniProt P11362)
[6] = molecular target: FGFR2 (UniProt P21802)
[7] = molecular target: FGFR3 (UniProt P22607)
[8] = molecular target: FGR (UniProt P09769)
[9] = molecular target: FLT3 (UniProt P36888)
[10] = molecular target: FYN (UniProt P06241)
[11] = molecular target: GSK3A (UniProt P49840)
[12] = molecular target: HER2 (UniProt P04626)
[13] = molecular target: INSRR (UniProt P14616)
[14] = molecular target: IRAK3 (UniProt Q9Y616)
[15] = molecular target: JAK1 (UniProt P23458)
[16] = molecular target: LCK (UniProt P06239)
[17] = molecular target: LIMK1 (UniProt P53667)
[18] = molecular target: LIMK2 (UniProt P53671)
[19] = molecular target: EGFR_L861Q (UniProt P00533)
[20] = molecular target: EGFR_T790M (UniProt P00533)

Chains of the proteins cited; added tags and fusions are not shown. Lines headed by an entry give the natural chain unless they say otherwise; changes in a name come on top.
UniProt P29317, whole entry: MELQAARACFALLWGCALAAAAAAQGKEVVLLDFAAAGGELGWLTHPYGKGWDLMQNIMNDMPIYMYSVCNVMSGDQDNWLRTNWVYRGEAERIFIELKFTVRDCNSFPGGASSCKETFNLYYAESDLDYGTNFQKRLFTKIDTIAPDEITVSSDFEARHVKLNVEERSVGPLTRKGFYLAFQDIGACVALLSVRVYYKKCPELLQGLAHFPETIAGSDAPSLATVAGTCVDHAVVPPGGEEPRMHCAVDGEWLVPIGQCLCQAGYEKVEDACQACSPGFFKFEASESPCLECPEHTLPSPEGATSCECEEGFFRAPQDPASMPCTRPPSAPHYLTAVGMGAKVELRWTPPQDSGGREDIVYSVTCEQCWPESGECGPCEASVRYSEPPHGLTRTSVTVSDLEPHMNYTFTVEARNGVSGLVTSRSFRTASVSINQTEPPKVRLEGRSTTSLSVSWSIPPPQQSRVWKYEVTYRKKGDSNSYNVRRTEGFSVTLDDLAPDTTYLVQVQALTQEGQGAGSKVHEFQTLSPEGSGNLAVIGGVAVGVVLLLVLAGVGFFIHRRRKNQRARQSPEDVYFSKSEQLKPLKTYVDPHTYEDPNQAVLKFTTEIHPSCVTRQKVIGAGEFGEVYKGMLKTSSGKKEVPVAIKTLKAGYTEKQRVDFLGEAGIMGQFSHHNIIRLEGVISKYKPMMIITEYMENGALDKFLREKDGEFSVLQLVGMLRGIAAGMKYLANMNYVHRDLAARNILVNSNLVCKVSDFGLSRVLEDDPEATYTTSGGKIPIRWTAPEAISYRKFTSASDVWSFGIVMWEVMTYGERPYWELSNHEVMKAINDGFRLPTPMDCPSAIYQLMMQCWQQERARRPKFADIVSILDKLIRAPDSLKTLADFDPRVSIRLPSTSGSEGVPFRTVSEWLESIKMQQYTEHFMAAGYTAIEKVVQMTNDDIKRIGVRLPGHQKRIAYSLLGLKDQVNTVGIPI
UniProt O75460: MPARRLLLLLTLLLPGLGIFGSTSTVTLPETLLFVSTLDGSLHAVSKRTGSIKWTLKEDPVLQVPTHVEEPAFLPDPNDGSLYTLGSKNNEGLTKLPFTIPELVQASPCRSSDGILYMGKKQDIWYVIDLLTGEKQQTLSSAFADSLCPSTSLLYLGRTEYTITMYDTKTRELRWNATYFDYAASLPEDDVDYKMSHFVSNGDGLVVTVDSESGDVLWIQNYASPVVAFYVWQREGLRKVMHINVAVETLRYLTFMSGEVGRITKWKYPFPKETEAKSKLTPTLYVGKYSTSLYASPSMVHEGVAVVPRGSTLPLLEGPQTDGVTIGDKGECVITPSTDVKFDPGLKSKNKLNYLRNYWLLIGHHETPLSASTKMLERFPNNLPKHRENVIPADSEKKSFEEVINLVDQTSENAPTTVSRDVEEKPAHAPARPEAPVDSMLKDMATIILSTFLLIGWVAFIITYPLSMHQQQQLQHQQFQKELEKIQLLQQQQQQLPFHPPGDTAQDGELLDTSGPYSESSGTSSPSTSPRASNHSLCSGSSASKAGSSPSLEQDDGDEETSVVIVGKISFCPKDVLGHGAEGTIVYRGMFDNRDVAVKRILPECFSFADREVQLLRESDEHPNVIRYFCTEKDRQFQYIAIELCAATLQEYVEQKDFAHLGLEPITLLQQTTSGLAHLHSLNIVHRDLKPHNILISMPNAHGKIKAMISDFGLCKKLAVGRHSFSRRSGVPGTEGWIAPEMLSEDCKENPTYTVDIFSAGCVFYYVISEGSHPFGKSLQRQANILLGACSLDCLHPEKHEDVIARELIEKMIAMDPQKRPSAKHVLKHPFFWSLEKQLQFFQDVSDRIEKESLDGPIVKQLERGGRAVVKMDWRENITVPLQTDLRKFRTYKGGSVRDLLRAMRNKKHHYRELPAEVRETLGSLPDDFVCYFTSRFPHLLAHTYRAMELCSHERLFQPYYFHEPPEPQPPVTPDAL
UniProt P21802, whole entry, looked up: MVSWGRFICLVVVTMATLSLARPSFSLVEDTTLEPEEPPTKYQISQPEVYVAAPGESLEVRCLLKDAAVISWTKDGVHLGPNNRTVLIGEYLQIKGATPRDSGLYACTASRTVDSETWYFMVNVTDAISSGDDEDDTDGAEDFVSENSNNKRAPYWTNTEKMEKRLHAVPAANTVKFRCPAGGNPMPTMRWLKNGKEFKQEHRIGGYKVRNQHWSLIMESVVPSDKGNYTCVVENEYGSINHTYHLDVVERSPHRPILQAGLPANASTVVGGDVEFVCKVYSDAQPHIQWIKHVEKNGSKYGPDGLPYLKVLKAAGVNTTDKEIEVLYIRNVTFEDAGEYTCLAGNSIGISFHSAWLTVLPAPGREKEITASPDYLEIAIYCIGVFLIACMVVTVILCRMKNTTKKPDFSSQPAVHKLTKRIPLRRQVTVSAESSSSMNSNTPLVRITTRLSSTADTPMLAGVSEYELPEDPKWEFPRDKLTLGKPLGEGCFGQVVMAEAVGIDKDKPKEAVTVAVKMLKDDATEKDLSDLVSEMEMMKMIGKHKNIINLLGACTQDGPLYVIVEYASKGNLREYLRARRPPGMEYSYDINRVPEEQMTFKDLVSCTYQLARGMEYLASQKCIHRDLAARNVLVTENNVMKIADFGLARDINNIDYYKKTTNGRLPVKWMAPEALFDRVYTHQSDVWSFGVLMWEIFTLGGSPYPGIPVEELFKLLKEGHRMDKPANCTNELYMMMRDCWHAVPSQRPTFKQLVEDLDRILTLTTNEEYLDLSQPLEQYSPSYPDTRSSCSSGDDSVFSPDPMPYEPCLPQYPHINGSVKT
UniProt P06241, whole entry, looked up: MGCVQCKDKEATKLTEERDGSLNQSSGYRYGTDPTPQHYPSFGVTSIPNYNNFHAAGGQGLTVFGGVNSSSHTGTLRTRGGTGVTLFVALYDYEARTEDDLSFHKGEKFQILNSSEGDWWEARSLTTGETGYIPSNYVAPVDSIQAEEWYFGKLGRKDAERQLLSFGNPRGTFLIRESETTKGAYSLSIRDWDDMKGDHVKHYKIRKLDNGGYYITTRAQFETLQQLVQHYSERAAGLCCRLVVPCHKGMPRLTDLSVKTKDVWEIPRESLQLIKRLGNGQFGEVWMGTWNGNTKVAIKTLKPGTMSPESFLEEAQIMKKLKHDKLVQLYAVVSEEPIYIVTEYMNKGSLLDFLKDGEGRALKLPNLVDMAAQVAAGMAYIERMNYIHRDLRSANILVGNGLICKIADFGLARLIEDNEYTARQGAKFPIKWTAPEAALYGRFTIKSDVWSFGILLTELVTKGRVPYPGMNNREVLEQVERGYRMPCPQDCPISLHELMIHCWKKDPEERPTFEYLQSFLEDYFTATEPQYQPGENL
UniProt Q9Y616: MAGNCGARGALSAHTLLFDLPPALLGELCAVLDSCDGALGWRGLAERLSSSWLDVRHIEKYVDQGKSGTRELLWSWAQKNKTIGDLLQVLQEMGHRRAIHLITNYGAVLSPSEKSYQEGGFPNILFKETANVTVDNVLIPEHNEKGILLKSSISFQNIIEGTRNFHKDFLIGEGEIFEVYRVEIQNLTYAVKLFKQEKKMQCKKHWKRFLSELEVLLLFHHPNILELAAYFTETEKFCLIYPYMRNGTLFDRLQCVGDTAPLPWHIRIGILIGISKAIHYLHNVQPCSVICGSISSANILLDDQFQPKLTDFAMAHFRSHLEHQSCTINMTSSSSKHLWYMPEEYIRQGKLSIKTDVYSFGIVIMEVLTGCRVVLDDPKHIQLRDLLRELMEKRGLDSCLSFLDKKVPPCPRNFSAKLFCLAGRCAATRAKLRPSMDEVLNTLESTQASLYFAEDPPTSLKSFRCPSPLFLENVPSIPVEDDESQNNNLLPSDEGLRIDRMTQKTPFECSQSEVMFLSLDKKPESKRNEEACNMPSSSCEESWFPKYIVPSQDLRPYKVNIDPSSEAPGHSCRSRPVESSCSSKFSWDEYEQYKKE
UniProt P23458: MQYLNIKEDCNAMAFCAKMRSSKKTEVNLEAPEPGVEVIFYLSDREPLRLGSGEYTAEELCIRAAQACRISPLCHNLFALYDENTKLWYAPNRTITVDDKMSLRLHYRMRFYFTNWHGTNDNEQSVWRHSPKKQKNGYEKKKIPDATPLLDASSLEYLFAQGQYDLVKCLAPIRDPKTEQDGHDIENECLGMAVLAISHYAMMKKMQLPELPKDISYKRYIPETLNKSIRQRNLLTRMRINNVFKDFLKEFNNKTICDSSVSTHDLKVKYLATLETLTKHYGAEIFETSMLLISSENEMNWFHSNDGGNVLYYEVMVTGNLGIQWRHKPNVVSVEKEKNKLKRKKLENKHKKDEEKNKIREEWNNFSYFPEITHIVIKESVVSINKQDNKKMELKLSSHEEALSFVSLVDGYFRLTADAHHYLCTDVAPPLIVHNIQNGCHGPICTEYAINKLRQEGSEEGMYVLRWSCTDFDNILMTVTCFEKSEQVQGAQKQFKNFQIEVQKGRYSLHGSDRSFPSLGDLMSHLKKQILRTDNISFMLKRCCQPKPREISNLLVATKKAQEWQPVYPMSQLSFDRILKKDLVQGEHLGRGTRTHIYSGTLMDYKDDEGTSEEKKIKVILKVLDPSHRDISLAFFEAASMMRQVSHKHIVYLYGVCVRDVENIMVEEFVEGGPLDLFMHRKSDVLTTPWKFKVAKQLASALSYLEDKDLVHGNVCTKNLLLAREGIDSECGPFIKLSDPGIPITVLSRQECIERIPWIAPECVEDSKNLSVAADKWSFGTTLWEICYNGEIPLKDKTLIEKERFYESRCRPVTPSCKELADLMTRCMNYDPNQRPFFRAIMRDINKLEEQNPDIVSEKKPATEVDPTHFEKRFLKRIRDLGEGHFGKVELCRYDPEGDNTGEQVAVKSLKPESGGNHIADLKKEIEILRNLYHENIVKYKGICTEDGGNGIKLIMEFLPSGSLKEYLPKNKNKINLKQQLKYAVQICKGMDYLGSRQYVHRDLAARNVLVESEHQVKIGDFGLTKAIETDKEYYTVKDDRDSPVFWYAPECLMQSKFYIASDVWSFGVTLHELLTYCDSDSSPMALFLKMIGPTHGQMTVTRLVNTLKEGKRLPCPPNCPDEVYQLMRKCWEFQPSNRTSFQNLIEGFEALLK
UniProt P06239: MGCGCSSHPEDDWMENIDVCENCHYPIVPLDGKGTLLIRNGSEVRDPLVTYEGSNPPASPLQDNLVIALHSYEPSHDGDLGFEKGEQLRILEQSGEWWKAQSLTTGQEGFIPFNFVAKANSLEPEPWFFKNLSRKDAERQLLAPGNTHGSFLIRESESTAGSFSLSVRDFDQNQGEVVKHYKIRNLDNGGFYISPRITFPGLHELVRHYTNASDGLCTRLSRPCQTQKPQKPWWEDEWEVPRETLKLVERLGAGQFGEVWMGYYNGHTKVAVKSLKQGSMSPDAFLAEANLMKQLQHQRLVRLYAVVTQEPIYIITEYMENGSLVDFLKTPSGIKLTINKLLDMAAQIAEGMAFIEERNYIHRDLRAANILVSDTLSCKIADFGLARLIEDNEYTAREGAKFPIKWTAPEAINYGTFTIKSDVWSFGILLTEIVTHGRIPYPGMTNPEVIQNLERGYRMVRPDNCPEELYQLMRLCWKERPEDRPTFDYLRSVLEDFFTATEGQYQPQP
UniProt P53671: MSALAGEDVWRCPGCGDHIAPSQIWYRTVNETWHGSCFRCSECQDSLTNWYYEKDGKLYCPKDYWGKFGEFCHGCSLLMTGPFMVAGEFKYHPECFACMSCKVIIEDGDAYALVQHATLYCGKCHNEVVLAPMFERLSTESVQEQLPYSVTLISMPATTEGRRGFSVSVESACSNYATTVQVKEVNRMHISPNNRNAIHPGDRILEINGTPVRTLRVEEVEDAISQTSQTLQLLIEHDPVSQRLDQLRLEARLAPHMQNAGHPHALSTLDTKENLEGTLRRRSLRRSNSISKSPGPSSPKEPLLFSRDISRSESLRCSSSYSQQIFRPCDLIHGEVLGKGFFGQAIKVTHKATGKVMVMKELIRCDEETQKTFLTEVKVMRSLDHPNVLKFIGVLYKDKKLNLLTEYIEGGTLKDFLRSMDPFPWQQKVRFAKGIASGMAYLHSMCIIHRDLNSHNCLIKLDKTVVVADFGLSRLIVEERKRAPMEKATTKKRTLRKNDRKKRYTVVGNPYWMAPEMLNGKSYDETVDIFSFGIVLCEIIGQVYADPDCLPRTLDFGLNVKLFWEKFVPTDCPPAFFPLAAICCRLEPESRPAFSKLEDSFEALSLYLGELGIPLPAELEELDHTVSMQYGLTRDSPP

Compound | number of time points [1] | number of time points [2] | number of time points [3] | number of time points [4] | number of time points [5] | number of time points [6] | number of time points [7] | number of time points [8] | number of time points [9] | number of time points [10] | number of time points [11] | number of time points [12] | number of time points [13] | number of time points [14] | number of time points [15] | number of time points [16] | number of time points [17] | number of time points [18] | number of time points [19] | number of time points [20]
CCc1nc(-c2cccc(C)c2)c(-c2ccnc(NC(=O)c3ccccc3)c2)s1 (10 µM) | 0 | 0 | 0 | 0 | 0 | 0 | 0 | 0 | 0 | 0 | 0 | 0 | 0 | 0 | 0 | 0 | 0 | 0 |  | 
COc1ccc2c(NC(=O)Nc3cccc(C(F)(F)F)n3)ccnc2c1 (10 µM) | 0 | 0 | 0 | 0 | 0 | 0 | 0 | 0 | 0 | 0 | 0 | 0 | 0 | 0 | 0 | 0 | 0 | 0 |  | 
O=C([O-])c1ccccc1O.[Na+] [Sodium Salicylate] (10 µM) | 0 | 0 | 0 | 0 | 0 | 0 | 0 | 0 | 0 | 0 | 0 | 0 | 0 | 0 | 0 | 0 | 0 | 0 | 0 | 
COc1c(CC=C(C)C)c(O)cc2oc(=O)c(-c3ccc(O)cc3O)cc12 [Glycycoumarin] (10 µM) | 0 | 0 | 0 | 0 | 0 | 0 | 0 | 0 | 0 | 0 | 0 | 0 | 0 | 0 | 0 | 0 | 0 | 0 | 0 | 
C=CC(=O)N1CCN(CCCn2c(=O)c(-c3c(Cl)c(OC)cc(OC)c3Cl)cc3cnc(NC)nc32)CC1 (10 µM) | 0 | 0 | 0 | 0 |  |  | 0 | 0 | 0 | 4 | 0 | 0 | 0 | 0 | 0 | 0 | 0 | 0 | 0 | 0
C=CC(=O)Nc1cccc(Nc2nc(Nc3ccc(OCCOC)cc3)ncc2F)c1 [Spebrutinib] (10 µM) | 0 | 0 | 0 |  | 0 | 0 | 0 | 0 | 0 | 0 | 0 | 1 | 0 | 1 | 0 | 0 | 0 | 0 | 0 | 0
O=C(O)CCNC(=O)c1ccc(/N=N/c2ccc(O)c(C(=O)O)c2)cc1 [Balsalazide] (10 µM) | 0 | 0 | 0 | 0 | 0 | 0 | 0 | 0 | 0 | 0 | 0 | 0 | 0 | 0 | 0 | 0 | 0 | 0 | 0 | 
COc1cc(CCc2cc(-c3nc4ccc(N5CCN(C)CC5)cc4[nH]3)n[nH]2)cc(OC)c1 (10 µM) | 0 | 5 | 3 | 0 |  | 3 |  | 0 |  | 3 | 0 | 0 | 4 | 0 | 2 | 0 | 3 | 2 | 3 | 0
COc1cc(OC)cc(N(CCNC(C)C)c2ccc3ncc(-c4cnn(C)c4)nc3c2)c1 [Erdafitinib] (2.5 µM) | 0 | 0 | 0 | 0 |  |  |  | 0 |  | 0 | 0 | 0 | 0 | 0 | 0 | 0 | 0 | 0 | 0 | 0
CC(C)=CC/C=C(\C)[C@H]1CC[C@]2(C)[C@@H]1[C@H](O)C[C@@H]1[C@@]3(C)CC[C@H](O[C@@H]4O[C@H](CO)[C@@H](O)[C@H](O)[C@H]4O[C@@H]4O[C@H](CO)[C@@H](O)[C@H](O)[C@H]4O)C(C)(C)[C@@H]3CC[C@]12C [Ginsenoside Rg5] (10 µM) | 0 | 0 | 0 |  | 0 | 0 | 0 | 0 | 0 | 0 | 0 | 0 | 0 | 0 | 0 | 0 | 0 | 0 | 0 | 0
COCCNCCc1cccc(Nc2ncc3c(n2)-c2ccccc2[C@H](c2ccccc2F)C3)c1 [Derazantinib] (2.5 µM) | 0 | 0 | 0 | 0 |  | 0 | 0 | 0 | 0 | 0 | 0 | 0 | 0 | 0 | 0 | 0 | 0 | 0 | 0 | 0
O=C1Nc2ccccc2/C1=C/c1ccc(F)cc1 (10 µM) | 0 | 0 | 0 |  | 0 | 0 | 0 | 0 | 0 | 0 | 0 | 0 | 0 | 0 | 0 | 0 | 0 | 0 | 0 | 0
Cc1c[nH]c(/C=C2\C(=O)Nc3ccccc32)c1CCC(=O)O (10 µM) | 0 | 0 | 0 | 0 |  | 0 | 0 | 0 | 0 | 0 | 0 | 0 | 0 | 0 | 0 | 0 | 0 | 0 | 0 | 0
CN1CCN(C2CCN(C(=O)Nc3cc(Oc4ccc(NC(=O)C5(C(=O)Nc6ccc(F)cc6)CC5)c(F)c4)ccn3)CC2)CC1 [Golvatinib] (2.5 µM) |  | 2 | 0 | 0 | 0 | 3 | 0 | 0 | 0 | 1 | 0 | 0 | 2 | 0 | 0 | 0 | 0 | 0 | 2 | 0
C[C@H](NC(=O)/C(C#N)=C/c1cccc(Br)n1)c1ccccc1 (2.5 µM) | 0 | 0 | 0 | 0 | 0 | 0 | 0 | 0 | 0 | 3 | 0 | 0 | 0 | 0 | 0 | 0 | 0 | 3 | 0 | 
O=C1c2ccccc2-c2n[nH]c3cccc1c23 (10 µM) | 0 | 0 | 0 | 0 | 0 | 0 | 0 | 0 | 0 | 0 | 0 | 0 | 0 | 0 | 0 | 0 | 0 | 0 |  | 
O=c1oc2c(C3OCCCO3)c(O)ccc2c2c1CNCC2 (10 µM) | 0 | 0 | 0 |  | 0 | 0 | 0 | 0 | 0 | 0 | 0 | 0 | 0 | 0 | 0 | 0 | 0 | 0 | 0 | 0
CCC(=O)N1CCN(c2ccc(-n3c(=O)ccc4cnc5ccc(-c6cnc7ccccc7c6)cc5c43)cc2C(F)(F)F)CC1 [Torin 1] (2 µM) | 0 | 0 | 0 | 0 | 4 | 5 | 0 | 0 | 0 | 0 | 0 | 0 | 0 | 0 | 0 | 0 | 0 | 0 | 0 | 
CC(C)n1cnc2c(NCc3cccc(C(F)(F)F)c3)ncnc21 [Longdaysin] (10 µM) | 0 | 0 | 0 | 0 | 0 | 0 | 0 | 0 | 0 | 0 | 0 | 0 | 0 | 0 | 0 | 0 | 0 | 0 | 0 | 
FC(F)(F)c1ccc(CNc2ccc(Cc3c[nH]c4ncc(Cl)cc34)cn2)cc1 (10 µM) | 0 | 0 | 0 | 0 | 0 | 0 | 0 | 0 | 0 | 0 | 0 | 0 | 0 | 0 | 0 | 0 | 0 | 0 | 0 | 
Cc1c[nH]c2ccccc12 [Skatole] (10 µM) | 0 | 0 | 0 | 0 | 0 | 0 | 0 | 0 | 0 | 0 | 0 | 0 | 0 | 0 | 0 | 0 | 0 | 0 | 0 | 
CCN1CCN(c2ccc(Nc3cc(N(C)C(=O)Nc4c(Cl)c(OC)cc(OC)c4Cl)ncn3)cc2)CC1 [Infigratinib] (10 µM) | 0 | 0 | 0 | 0 | 0 | 0 | 0 | 0 | 0 | 0 | 0 | 0 | 0 | 0 | 0 | 0 | 0 | 0 |  | 
C=CC(=O)Nc1ccc2ncnc(Nc3cccc(Br)c3)c2c1 (10 µM) | 0 | 0 | 2 | 0 | 0 | 3 | 0 | 0 | 0 | 1 | 0 | 0 | 1 | 4 | 0 | 0 | 0 | 0 |  | 

Part of the list above, as a markdown table:

| Compound | number of time points [1] | number of time points [2] | number of time points [3] | number of time points [4] | number of time points [5] | number of time points [6] | number of time points [7] | number of time points [8] | number of time points [9] | number of time points [10] | number of time points [11] | number of time points [12] | number of time points [13] | number of time points [14] | number of time points [15] | number of time points [16] | number of time points [17] | number of time points [18] | number of time points [19] | number of time points [20] |
| --- | --- | --- | --- | --- | --- | --- | --- | --- | --- | --- | --- | --- | --- | --- | --- | --- | --- | --- | --- | --- |
| C=CC(=O)Nc1cccc(Nc2nc(Nc3ccc(OCCOC)cc3)ncc2F)c1 [Spebrutinib] (10 µM) | 0 | 0 | 0 |  | 0 | 0 | 0 | 0 | 0 | 0 | 0 | 1 | 0 | 1 | 0 | 0 | 0 | 0 | 0 | 0 |
| O=C(O)CCNC(=O)c1ccc(/N=N/c2ccc(O)c(C(=O)O)c2)cc1 [Balsalazide] (10 µM) | 0 | 0 | 0 | 0 | 0 | 0 | 0 | 0 | 0 | 0 | 0 | 0 | 0 | 0 | 0 | 0 | 0 | 0 | 0 |  |

Source: the supplement of paper PMC12823440, “Inhibitors supercharge kinase turnover through native proteolytic circuits” (Nature, 2025)
